Laboratory results published in article PMC10486482.
Results are given in words; binding and its absence hold for the method and conditions named. In cells and extracts the contact can be indirect. A yes stands for co-enrichment or nearness to the bait. Other partners may have been found. Sequences can lack the tags named with a protein.

By UniProt entry, the sequences of proteins in these tests, tags left out.
UniProt O97758: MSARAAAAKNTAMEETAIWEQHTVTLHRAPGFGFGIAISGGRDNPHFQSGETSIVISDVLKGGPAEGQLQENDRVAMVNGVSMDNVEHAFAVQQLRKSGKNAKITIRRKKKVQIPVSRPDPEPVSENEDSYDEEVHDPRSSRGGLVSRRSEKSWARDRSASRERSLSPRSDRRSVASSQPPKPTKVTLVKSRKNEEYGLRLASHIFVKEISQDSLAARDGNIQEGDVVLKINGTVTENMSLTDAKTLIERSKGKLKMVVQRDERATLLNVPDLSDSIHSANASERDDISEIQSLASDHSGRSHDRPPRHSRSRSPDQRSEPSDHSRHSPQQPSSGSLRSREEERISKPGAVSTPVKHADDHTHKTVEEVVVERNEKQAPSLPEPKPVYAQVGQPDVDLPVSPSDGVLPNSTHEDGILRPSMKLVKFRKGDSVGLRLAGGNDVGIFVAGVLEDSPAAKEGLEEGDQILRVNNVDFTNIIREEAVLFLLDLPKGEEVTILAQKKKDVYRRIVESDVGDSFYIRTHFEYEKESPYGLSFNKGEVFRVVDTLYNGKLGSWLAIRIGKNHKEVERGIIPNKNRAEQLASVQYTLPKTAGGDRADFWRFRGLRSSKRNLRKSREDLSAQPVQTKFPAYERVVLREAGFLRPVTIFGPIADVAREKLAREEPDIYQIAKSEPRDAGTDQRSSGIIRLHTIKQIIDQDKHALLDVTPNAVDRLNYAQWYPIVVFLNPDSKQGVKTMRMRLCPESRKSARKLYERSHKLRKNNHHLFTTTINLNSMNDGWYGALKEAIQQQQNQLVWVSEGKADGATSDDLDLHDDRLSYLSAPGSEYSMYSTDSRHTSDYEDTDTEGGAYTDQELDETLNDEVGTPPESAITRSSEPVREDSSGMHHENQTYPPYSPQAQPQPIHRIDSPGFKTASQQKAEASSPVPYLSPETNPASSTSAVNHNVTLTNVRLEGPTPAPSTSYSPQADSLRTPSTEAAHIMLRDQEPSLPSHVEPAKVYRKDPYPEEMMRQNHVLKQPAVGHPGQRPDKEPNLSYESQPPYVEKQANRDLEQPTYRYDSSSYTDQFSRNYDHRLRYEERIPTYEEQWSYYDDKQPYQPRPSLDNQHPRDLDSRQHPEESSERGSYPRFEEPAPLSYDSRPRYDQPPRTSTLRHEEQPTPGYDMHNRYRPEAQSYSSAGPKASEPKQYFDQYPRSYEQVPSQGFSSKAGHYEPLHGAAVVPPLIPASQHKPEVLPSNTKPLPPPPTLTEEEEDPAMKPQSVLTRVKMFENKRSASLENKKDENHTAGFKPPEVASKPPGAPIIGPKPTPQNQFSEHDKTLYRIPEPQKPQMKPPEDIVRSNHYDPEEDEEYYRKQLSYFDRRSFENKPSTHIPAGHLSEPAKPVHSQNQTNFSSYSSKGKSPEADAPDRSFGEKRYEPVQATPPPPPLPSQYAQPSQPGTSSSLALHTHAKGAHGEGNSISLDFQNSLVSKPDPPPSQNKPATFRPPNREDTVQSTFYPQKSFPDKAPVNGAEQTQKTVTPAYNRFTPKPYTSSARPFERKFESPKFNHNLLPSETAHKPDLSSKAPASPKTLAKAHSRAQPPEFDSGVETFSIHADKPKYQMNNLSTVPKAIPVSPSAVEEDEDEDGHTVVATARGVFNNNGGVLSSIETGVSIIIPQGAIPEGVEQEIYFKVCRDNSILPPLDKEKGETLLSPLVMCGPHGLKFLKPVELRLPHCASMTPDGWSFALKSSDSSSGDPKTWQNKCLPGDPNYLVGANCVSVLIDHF

Target: T1, BirA-p100AmotL2 (human p100AmotL2 fused to the promiscuous E. coli biotin ligase BirA*) (human) (UniProt Q9Y2J4)
T1 sequence: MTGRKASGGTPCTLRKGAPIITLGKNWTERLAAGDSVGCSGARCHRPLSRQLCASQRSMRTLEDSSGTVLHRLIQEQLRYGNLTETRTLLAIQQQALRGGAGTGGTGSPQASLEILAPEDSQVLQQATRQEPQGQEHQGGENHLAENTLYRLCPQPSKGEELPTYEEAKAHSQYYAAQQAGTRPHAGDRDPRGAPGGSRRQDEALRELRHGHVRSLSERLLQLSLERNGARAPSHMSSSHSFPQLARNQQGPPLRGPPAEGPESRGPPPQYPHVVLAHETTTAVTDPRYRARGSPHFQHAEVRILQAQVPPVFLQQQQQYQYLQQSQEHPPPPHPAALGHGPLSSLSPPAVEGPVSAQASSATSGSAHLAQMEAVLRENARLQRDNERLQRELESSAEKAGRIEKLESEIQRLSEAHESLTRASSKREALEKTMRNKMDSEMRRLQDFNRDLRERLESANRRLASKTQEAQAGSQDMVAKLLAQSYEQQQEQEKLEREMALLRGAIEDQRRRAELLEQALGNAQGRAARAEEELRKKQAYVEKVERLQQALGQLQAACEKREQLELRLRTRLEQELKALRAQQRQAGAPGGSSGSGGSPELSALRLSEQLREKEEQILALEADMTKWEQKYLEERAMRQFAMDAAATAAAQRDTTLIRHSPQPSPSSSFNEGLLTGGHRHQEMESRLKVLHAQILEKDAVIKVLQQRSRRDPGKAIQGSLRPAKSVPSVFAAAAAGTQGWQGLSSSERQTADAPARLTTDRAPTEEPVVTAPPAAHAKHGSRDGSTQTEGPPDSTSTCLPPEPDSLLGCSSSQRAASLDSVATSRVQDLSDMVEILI
Assay: proximity labelling; BioID: MDCK cells stably expressing BirA-p100AmotL2, 50 µM biotin for 16 h; lysis in 8 M urea buffer; biotinylated proteins purified on streptavidin beads and identified by mass spectrometry; controls were empty vector ± biotin and p100AmotL2 without biotin; n = 3

binding, binds:
Mothers against decapentaplegic homolog 3 (canine (endogenous in MDCK))
Zona Occludens-1 (from UniProt O97758 1-1769)
alpha-catenin (canine (endogenous in MDCK))
p120 catenin (canine (endogenous in MDCK))
vinculin (canine (endogenous in MDCK))
